pIC50: −log10 of the molar value. The structures given here were assigned with low confidence; some may be wrong.
Molecular target: S-nitrosoglutathione reductase (GSNOR) (Homo sapiens, UniProt P11766)
Test: GSNOR assay (inhibition of GSNOR activity, NADH absorbance at 340 nm)
Format: biochemical
Details: read-out: IC50 range; GSNOR inhibitor activity, Tables 1-6

Protein sequences, listed by entry. Tags and fused reporters are not part of them.
UniProt P11766, whole entry: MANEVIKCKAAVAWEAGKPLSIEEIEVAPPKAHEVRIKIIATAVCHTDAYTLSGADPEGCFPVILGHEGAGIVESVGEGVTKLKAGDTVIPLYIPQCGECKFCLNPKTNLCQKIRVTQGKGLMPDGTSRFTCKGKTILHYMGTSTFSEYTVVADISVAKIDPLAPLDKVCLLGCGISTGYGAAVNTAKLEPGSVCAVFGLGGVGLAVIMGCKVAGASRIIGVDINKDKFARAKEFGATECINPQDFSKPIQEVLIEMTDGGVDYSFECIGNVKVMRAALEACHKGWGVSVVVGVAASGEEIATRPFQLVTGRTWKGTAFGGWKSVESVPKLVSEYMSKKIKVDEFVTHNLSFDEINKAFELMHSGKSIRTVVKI

O=C(O)c1ccc(NS(=O)(=O)c2ccc(O)c(F)c2)cc1
pIC50: 5.00 to 6.00
